# According to the supplement of paper PMC10032668:
# Sequences of proteins named here, by UniProt entry; tags and fusion partners are left off.
# CKS2, P33552, UniProt P33552, whole entry: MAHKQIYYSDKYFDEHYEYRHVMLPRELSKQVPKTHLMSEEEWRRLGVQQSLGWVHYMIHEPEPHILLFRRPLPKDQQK
# CUL4B, Q13620, UniProt Q13620, whole entry: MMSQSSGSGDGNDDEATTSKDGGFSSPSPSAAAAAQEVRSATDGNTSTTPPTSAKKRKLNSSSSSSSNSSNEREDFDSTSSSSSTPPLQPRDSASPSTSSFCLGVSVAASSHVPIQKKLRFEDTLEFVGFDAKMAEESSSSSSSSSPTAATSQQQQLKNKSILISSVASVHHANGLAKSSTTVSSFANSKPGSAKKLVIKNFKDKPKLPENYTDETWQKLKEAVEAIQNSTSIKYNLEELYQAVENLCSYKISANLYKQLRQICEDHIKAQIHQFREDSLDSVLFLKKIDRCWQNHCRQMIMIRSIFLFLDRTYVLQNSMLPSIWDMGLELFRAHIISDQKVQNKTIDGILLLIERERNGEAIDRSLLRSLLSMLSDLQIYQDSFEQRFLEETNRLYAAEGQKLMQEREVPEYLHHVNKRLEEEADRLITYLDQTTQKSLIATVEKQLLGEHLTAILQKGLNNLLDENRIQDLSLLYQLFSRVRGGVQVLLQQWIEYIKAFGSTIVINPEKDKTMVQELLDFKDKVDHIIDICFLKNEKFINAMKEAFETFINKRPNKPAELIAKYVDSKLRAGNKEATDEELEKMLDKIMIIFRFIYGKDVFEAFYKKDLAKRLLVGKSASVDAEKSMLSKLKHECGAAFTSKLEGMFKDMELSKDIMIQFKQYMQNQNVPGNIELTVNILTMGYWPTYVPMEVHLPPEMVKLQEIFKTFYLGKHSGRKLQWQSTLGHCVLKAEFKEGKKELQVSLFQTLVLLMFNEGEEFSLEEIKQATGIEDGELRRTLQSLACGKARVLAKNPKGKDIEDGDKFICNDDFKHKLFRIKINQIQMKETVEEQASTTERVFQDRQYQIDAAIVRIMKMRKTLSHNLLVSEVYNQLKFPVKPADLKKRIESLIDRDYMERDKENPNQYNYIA
# TPX2, Q9ULW0, UniProt Q9ULW0, whole entry: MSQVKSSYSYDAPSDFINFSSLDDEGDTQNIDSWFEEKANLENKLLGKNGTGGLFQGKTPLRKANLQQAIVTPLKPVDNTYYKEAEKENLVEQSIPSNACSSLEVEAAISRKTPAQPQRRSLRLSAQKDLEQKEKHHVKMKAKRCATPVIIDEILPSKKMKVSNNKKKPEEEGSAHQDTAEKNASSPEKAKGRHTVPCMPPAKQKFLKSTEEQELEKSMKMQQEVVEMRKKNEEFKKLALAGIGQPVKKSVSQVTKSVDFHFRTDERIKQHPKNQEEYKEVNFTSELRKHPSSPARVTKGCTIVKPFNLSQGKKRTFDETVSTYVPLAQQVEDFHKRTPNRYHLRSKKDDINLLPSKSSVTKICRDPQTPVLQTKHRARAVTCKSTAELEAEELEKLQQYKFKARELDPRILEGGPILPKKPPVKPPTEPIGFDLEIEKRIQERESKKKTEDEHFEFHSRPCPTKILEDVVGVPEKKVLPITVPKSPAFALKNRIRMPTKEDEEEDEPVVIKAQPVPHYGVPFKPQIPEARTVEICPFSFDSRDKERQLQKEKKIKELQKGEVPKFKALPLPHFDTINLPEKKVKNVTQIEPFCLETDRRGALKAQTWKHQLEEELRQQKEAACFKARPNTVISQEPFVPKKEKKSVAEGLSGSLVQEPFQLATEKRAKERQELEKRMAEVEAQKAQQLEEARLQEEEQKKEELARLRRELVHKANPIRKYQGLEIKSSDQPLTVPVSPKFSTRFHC
# NDUFB7, P17568, UniProt P17568, whole entry: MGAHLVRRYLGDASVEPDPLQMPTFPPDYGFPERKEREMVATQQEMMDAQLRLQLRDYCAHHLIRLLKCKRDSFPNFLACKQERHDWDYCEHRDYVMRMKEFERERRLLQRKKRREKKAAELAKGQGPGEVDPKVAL
# COIL, P38432, UniProt P38432, whole entry: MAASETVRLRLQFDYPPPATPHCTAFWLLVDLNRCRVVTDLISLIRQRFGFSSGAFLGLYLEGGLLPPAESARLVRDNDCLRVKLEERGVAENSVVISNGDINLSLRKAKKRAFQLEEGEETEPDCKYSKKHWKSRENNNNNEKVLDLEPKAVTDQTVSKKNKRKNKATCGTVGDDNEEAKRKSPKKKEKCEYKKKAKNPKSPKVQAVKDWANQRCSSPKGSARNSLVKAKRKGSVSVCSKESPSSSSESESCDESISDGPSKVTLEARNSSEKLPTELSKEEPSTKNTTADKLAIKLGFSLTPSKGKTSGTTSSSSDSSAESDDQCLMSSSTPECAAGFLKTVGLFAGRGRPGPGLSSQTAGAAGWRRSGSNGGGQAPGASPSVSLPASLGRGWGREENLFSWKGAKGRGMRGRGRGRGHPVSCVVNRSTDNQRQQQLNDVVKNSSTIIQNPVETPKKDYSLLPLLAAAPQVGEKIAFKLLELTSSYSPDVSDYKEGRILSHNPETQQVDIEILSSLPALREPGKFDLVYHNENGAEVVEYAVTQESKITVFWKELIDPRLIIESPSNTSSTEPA
# GNB2, P62879, UniProt P62879, whole entry: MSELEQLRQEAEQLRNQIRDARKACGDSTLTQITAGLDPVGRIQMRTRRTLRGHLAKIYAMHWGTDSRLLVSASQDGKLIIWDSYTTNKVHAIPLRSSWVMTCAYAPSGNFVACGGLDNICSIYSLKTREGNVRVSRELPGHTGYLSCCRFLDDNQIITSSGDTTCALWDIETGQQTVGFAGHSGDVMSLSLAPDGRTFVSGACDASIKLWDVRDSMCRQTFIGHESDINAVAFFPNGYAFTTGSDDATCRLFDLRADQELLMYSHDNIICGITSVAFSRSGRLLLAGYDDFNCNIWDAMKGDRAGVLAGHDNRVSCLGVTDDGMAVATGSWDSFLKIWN
# Some of the results follow. The list holds hits alone, and they repeat only in part.
# Key:
# Test in all cases: PRISMA enrichment of interactor (LFQ) in peptide spot vs all other peptide spots (log2 fold change); higher = stronger / more specific binding of the interactor to the peptide
# BASP1, P80723 = target: BASP1, P80723
# Experimental: (§1)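 PRISMA: 15-aa overlapping tiles (offset 8 aa) of 60 microproteins, plus SOS1/GLUT1 control peptides, were spot-synthesized on cellulose membranes in triplicate. Membranes were incubated with benzonase-treated HEK293T lysate, and bound proteins were identified by LC-MS/MS with LFQ. Enrichment is the log2 fold change of each protein in one spot versus all other spots. Only interactors passing the significance cutoff are listed.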
# CKS2, P33552 = target: CKS2, P33552
# Experimental: as §1
# CST4, P01036 = target: CST4, P01036
# Experimental: as §1
# CUL4B, Q13620 = target: CUL4B, Q13620
# Experimental: as §1
# DBR1, Q9UK59 = target: DBR1, Q9UK59
# Experimental: as §1
# HDGF, P51858 = target: HDGF, P51858
# Experimental: as §1
# MAGED2, Q9UNF1 = target: MAGED2, Q9UNF1
# Experimental: as §1
# MXRA7, P84157 = target: MXRA7, P84157
# Experimental: as §1
# PNISR, Q8TF01 = target: PNISR, Q8TF01
# Experimental: as §1
# RRP15, Q9Y3B9 = target: RRP15, Q9Y3B9
# Experimental: as §1
# SART1, O43290 = target: SART1, O43290
# Experimental: as §1
# BMS1, Q14692 = target: BMS1, Q14692
# Experimental: as §1
# CSNK2A2, P19784 = target: CSNK2A2, P19784
# Experimental: as §1
# DDX27, Q96GQ7 = target: DDX27, Q96GQ7
# Experimental: as §1
# DRG2, P55039 = target: DRG2, P55039
# Experimental: as §1
# EHD1, Q9H4M9 = target: EHD1, Q9H4M9
# Experimental: as §1
# MARCKSL1, P49006 = target: MARCKSL1, P49006
# Experimental: as §1
# PDCL3, Q9H2J4 = target: PDCL3, Q9H2J4
# Experimental: as §1
# PLAA, Q9Y263 = target: PLAA, Q9Y263
# Experimental: as §1
# RNF213, Q63HN8 = target: RNF213, Q63HN8
# Experimental: as §1
# SEPTIN9, Q9UHD8 = target: SEPTIN9, Q9UHD8
# Experimental: as §1
# SF3B2, Q13435 = target: SF3B2, Q13435
# Experimental: as §1
# SRRT, Q9BXP5 = target: SRRT, Q9BXP5
# Experimental: as §1
# TOMM40, O96008 = target: TOMM40, O96008
# Experimental: as §1
# TPX2, Q9ULW0 = target: TPX2, Q9ULW0
# Experimental: as §1
# XPO7, Q9UIA9 = target: XPO7, Q9UIA9
# Experimental: as §1
# BAZ1A, Q9NRL2 = target: BAZ1A, Q9NRL2
# Experimental: as §1
# DDX49, Q9Y6V7 = target: DDX49, Q9Y6V7
# Experimental: as §1
# NDUFB7, P17568 = target: NDUFB7, P17568
# Experimental: as §1
# RBX1, P62877 = target: RBX1, P62877
# Experimental: as §1
# SPCS2, Q15005 = target: SPCS2, Q15005
# Experimental: as §1
# BCOR, Q6W2J9 = target: BCOR, Q6W2J9
# Experimental: as §1
# CNPY2, Q9Y2B0 = target: CNPY2, Q9Y2B0
# Experimental: as §1
# COIL, P38432 = target: COIL, P38432
# Experimental: as §1
# DDX20, Q9UHI6 = target: DDX20, Q9UHI6
# Experimental: as §1
# EXOSC10, Q01780 = target: EXOSC10, Q01780
# Experimental: as §1
# FAM98B, Q52LJ0 = target: FAM98B, Q52LJ0
# Experimental: as §1
# GNB2, P62879 = target: GNB2, P62879
# Experimental: as §1
# ISG20L2, Q9H9L3 = target: ISG20L2, Q9H9L3
# Experimental: as §1
# MT-ATP6, P00846 = target: MT-ATP6, P00846
# Experimental: as §1
# NSFL1C, Q9UNZ2 = target: NSFL1C, Q9UNZ2
# Experimental: as §1
# PDCD5, O14737 = target: PDCD5, O14737
# Experimental: as §1
# RER1, O15258 = target: RER1, O15258
# Experimental: as §1
# RPP38, P78345 = target: RPP38, P78345
# Experimental: as §1
# USP5, P45974 = target: USP5, P45974
# Experimental: as §1
binder,measurement,setting,value
GETHTDRGSGMTGKG [LINC00881_2],PRISMA enrichment of interactor (log2),"BASP1, P80723",4.57
same,PRISMA enrichment of interactor (log2),"CKS2, P33552",5.04
same,PRISMA enrichment of interactor (log2),"CST4, P01036",5.38
same,PRISMA enrichment of interactor (log2),"CUL4B, Q13620",4.41
same,PRISMA enrichment of interactor (log2),"DBR1, Q9UK59",5.44
same,PRISMA enrichment of interactor (log2),"HDGF, P51858",5.05
same,PRISMA enrichment of interactor (log2),"MAGED2, Q9UNF1",4.8
same,PRISMA enrichment of interactor (log2),"MXRA7, P84157",5.71
same,PRISMA enrichment of interactor (log2),"PNISR, Q8TF01",4.22
same,PRISMA enrichment of interactor (log2),"RRP15, Q9Y3B9",4.71
same,PRISMA enrichment of interactor (log2),"SART1, O43290",4.99
LCNHMEVCLILKLKK [RP11-620J15.3],PRISMA enrichment of interactor (log2),"BASP1, P80723",4.4
same,PRISMA enrichment of interactor (log2),"BMS1, Q14692",5.61
same,PRISMA enrichment of interactor (log2),"CSNK2A2, P19784",5.7
same,PRISMA enrichment of interactor (log2),"DDX27, Q96GQ7",5.28
same,PRISMA enrichment of interactor (log2),"DRG2, P55039",4.25
same,PRISMA enrichment of interactor (log2),"EHD1, Q9H4M9",5.54
same,PRISMA enrichment of interactor (log2),"MARCKSL1, P49006",4.47
same,PRISMA enrichment of interactor (log2),"PDCL3, Q9H2J4",8.57
same,PRISMA enrichment of interactor (log2),"PLAA, Q9Y263",8.31
same,PRISMA enrichment of interactor (log2),"RNF213, Q63HN8",8.77
same,PRISMA enrichment of interactor (log2),"SEPTIN9, Q9UHD8",4.34
same,PRISMA enrichment of interactor (log2),"SF3B2, Q13435",6.35
same,PRISMA enrichment of interactor (log2),"SRRT, Q9BXP5",6.19
same,PRISMA enrichment of interactor (log2),"TOMM40, O96008",4.99
same,PRISMA enrichment of interactor (log2),"TPX2, Q9ULW0",4.87
same,PRISMA enrichment of interactor (log2),"XPO7, Q9UIA9",4.66
TTRGEACGWPTASGW [THAP7],PRISMA enrichment of interactor (log2),"BAZ1A, Q9NRL2",6.68
same,PRISMA enrichment of interactor (log2),"DDX49, Q9Y6V7",5.22
same,PRISMA enrichment of interactor (log2),"NDUFB7, P17568",7.45
same,PRISMA enrichment of interactor (log2),"RBX1, P62877",5.74
same,PRISMA enrichment of interactor (log2),"SPCS2, Q15005",5.31
LLLWHPALGAQARPP [TUG1],PRISMA enrichment of interactor (log2),"BAZ1A, Q9NRL2",4.43
same,PRISMA enrichment of interactor (log2),"BCOR, Q6W2J9",4.35
same,PRISMA enrichment of interactor (log2),"CNPY2, Q9Y2B0",5.01
same,PRISMA enrichment of interactor (log2),"COIL, P38432",5.95
same,PRISMA enrichment of interactor (log2),"DDX20, Q9UHI6",5.15
same,PRISMA enrichment of interactor (log2),"EXOSC10, Q01780",5.23
same,PRISMA enrichment of interactor (log2),"FAM98B, Q52LJ0",6.47
same,PRISMA enrichment of interactor (log2),"GNB2, P62879",5.13
same,PRISMA enrichment of interactor (log2),"ISG20L2, Q9H9L3",8.83
same,PRISMA enrichment of interactor (log2),"MT-ATP6, P00846",4.58
same,PRISMA enrichment of interactor (log2),"NSFL1C, Q9UNZ2",6.54
same,PRISMA enrichment of interactor (log2),"PDCD5, O14737",4.96
same,PRISMA enrichment of interactor (log2),"RER1, O15258",4.32
same,PRISMA enrichment of interactor (log2),"RPP38, P78345",7.83
same,PRISMA enrichment of interactor (log2),"USP5, P45974",4.82

# Reprinted from the results shown (3 entries):
binder,measurement,setting,value
GETHTDRGSGMTGKG [LINC00881_2],PRISMA enrichment of interactor (log2),"CUL4B, Q13620",4.41
same,PRISMA enrichment of interactor (log2),"DBR1, Q9UK59",5.44
same,PRISMA enrichment of interactor (log2),"HDGF, P51858",5.05
